These are yes or no findings as the source states them, for the method shown. Binding seen in cells or lysates may run through a third protein. Some entries that bind do so weakly or less than the wild type.
Tests used:
[1] = target: Bid (BH3-interacting domain death agonist) (mouse (endogenous in BV-2 cells, primary mixed glia and astrocytes)) (UniProt P70444); experiment: co-IP; Bid immunoprecipitated from RIPA lysates of purified wild-type and bid-/- astrocytes stimulated with LPS (100 ng/ml) for 1 and 4 h; blot for TRAF6
[2] = target: Bid (BH3-interacting domain death agonist) (mouse (endogenous in BV-2 cells, primary mixed glia and astrocytes)) (UniProt P70444); experiment: co-IP; Bid immunoprecipitated (5 ug antibody on Dynabeads Protein G, 100 ug protein, 2 h at room temperature) from RIPA lysates of BV-2 cells (LPS 1 ug/ml, 15 min or 1 h) and of primary mixed glia (LPS 100 ng/ml, 1 and 4 h); blot for TRAF6; controls: IgG and bid-deficient glia

Chains of the proteins cited; added tags and fusions are not shown.
UniProt P70444: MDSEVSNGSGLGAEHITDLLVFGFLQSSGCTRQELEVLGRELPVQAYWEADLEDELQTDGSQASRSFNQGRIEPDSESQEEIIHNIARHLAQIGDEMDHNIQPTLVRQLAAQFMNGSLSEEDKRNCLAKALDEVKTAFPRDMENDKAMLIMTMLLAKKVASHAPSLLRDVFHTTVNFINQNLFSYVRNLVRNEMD

B1: tumor necrosis factor receptor associated factor 6 (TRAF6) (protein, UniProt P70196 1-530)
chain: MSLLNCENSCGSSQSSSDCCAAMAASCSAAVKDDSVSGSASTGNLSSSFMEEIQGYDVEFDPPLESKYECPICLMALREAVQTPCGHRFCKACIIKSIRDAGHKCPVDNEILLENQLFPDNFAKREILSLTVKCPNKGCLQKMELRHLEDHQVHCEFALVNCPQCQRPFQKCQVNTHIIEDCPRRQVSCVNCAVSMAYEEKEIHDQSCPLANIICEYCGTILIREQMPNHYDLDCPTAPIPCTFSVFGCHEKMQRNHLARHLQENTQLHMRLLAQAVHNVNLALRPCDAASPSRGCRPEDPNYEETIKQLESRLVRQDHQIRELTAKMETQSMYVGELKRTIRTLEDKVAEMEAQQCNGIYIWKIGNFGMHLKSQEEERPVVIHSPGFYTGRPGYKLCMRLHLQLPTAQRCANYISLFVHTMQGEYDSHLPWPFQGTIRLTILDQSEALIRQNHEEVMDAKPELLAFQRPTIPRNPKGFGYVTFMHLEALRQGTFIKDDTLLVRCEVSTRFDMGGLRKEGFQPRSTDAGV
binding [1]: binds | binding [2]: binds

— publication PMC4870272
